The supplement of paper PMC10849652
This is one part of the list.

Protein sequences, listed by entry. Tags and fused reporters are not part of them. Lines headed by an entry give the natural chain unless they say otherwise; changes in a name come on top.
UniProt Q6UX04: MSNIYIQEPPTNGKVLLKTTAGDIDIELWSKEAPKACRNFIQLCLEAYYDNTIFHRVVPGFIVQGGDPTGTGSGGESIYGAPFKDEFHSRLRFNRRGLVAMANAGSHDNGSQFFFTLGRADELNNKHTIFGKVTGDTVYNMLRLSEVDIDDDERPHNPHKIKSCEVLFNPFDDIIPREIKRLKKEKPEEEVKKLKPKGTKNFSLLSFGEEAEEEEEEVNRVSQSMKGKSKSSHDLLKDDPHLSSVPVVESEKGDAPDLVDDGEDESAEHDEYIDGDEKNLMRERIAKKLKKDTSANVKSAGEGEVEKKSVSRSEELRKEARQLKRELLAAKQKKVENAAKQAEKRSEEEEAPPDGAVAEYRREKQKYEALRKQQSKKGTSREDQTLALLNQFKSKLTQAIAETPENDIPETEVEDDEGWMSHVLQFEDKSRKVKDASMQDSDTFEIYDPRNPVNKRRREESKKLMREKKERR
UniProt Q05048: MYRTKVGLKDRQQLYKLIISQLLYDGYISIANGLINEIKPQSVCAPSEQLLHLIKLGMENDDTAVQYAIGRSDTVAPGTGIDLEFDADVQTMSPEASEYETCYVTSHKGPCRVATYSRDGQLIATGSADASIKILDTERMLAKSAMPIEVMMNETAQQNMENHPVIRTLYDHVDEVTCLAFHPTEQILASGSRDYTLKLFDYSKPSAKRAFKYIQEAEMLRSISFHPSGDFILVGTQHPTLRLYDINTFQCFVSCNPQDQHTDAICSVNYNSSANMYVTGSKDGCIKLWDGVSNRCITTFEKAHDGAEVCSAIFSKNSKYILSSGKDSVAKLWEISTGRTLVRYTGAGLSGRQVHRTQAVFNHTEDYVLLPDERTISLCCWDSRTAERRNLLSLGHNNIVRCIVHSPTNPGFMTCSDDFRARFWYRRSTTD
UniProt Q96F07, whole entry, looked up: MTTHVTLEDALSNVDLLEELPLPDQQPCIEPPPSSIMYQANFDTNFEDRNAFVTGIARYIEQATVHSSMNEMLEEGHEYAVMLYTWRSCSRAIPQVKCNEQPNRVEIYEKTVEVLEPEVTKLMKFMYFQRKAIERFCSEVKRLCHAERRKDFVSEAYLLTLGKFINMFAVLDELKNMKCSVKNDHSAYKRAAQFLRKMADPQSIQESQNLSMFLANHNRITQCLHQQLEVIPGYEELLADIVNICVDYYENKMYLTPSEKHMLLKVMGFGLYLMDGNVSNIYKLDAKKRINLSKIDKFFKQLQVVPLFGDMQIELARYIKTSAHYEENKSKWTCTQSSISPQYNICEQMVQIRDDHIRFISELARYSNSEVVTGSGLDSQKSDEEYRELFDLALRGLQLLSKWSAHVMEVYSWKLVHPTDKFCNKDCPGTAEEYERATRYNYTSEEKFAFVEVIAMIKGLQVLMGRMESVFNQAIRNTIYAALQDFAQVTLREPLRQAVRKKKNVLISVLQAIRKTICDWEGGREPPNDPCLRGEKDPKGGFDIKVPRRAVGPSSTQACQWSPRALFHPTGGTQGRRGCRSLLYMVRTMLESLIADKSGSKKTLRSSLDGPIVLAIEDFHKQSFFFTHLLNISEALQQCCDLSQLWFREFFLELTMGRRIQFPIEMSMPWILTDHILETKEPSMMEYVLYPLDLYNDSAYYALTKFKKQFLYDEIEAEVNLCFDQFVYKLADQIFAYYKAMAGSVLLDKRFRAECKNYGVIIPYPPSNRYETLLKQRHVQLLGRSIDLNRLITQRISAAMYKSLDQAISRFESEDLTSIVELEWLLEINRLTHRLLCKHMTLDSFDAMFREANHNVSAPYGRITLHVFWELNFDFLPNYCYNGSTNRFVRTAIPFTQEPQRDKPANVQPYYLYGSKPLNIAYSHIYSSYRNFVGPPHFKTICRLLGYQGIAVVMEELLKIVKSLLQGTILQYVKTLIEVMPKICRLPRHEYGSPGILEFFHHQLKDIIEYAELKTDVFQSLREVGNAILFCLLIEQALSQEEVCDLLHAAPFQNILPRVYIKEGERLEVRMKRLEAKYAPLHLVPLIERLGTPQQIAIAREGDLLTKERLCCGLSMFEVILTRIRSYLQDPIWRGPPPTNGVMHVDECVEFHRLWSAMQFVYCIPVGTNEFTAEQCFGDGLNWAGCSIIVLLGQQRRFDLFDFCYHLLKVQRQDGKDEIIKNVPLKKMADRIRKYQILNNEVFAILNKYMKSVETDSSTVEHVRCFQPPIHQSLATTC
UniProt Q13619, whole entry, looked up: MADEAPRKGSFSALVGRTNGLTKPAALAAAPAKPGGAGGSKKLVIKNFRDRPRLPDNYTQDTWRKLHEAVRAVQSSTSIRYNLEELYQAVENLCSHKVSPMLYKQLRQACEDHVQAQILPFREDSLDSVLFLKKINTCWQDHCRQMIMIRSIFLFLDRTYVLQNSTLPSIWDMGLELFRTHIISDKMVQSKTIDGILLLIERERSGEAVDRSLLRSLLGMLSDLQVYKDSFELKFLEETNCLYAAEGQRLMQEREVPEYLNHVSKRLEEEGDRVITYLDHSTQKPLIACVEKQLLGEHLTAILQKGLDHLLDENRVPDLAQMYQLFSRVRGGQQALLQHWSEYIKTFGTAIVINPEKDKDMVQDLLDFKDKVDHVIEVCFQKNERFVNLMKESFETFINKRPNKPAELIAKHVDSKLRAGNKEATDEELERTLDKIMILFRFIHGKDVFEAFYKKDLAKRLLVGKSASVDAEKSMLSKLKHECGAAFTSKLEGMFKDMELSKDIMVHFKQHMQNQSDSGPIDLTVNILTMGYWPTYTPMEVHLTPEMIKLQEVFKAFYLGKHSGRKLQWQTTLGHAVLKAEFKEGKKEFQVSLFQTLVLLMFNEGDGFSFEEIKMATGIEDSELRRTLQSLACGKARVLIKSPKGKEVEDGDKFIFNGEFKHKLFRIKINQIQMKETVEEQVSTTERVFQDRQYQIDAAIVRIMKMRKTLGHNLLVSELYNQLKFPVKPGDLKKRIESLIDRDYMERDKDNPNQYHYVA
UniProt Q8WUE5: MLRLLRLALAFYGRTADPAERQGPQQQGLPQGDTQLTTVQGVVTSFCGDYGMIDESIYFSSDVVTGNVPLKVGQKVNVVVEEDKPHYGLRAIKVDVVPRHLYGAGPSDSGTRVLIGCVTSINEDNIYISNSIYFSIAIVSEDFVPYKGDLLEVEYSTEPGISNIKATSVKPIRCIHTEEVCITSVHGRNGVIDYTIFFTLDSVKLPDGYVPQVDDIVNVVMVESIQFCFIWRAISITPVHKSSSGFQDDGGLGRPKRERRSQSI
UniProt Q9Y5B0: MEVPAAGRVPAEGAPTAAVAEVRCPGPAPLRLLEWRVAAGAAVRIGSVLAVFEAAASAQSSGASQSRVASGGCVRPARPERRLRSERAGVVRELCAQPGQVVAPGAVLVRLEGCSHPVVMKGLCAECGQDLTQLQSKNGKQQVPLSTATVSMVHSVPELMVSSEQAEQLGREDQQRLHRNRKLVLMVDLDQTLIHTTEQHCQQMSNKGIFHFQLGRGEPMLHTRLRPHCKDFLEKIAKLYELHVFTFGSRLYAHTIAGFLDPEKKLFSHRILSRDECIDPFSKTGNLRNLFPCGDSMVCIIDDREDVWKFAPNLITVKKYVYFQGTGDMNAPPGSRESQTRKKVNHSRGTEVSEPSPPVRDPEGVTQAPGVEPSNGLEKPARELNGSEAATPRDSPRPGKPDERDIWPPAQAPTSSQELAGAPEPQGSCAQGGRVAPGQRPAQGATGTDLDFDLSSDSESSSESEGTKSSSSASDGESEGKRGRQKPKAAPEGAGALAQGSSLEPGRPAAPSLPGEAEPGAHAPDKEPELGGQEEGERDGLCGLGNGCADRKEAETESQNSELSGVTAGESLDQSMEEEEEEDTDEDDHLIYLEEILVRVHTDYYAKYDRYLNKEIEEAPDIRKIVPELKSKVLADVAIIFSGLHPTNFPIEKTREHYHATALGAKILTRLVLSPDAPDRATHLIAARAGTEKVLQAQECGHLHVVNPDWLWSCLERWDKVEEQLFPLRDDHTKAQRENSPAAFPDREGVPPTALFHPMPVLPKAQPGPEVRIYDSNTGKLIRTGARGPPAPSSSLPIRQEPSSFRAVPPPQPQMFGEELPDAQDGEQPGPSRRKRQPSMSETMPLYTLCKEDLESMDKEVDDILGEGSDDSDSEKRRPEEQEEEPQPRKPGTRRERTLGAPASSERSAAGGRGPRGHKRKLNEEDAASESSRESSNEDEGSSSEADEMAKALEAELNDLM
UniProt P04080: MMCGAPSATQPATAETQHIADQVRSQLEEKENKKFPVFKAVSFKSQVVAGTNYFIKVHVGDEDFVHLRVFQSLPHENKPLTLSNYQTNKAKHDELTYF
UniProt O75629: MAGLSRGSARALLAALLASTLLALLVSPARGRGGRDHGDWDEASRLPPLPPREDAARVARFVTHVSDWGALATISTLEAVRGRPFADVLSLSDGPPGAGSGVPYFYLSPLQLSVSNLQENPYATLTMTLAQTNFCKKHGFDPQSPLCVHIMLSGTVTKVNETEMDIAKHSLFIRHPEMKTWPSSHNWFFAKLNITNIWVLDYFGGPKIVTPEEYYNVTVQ
UniProt P13498: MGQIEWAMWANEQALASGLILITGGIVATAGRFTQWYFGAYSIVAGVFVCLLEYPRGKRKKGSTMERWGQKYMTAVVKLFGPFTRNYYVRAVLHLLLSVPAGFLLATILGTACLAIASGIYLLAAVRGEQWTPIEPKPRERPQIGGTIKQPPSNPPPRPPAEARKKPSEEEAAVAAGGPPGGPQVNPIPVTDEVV
UniProt O95825: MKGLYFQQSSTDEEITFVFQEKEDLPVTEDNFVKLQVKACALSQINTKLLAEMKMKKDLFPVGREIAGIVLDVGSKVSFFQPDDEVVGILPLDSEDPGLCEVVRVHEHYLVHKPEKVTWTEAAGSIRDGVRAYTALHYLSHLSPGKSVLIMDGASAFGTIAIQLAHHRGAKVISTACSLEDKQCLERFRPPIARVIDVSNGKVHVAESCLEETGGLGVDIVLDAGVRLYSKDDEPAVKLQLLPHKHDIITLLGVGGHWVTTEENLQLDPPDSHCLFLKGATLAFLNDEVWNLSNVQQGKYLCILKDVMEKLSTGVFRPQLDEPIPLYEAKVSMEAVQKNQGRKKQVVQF
UniProt O60931: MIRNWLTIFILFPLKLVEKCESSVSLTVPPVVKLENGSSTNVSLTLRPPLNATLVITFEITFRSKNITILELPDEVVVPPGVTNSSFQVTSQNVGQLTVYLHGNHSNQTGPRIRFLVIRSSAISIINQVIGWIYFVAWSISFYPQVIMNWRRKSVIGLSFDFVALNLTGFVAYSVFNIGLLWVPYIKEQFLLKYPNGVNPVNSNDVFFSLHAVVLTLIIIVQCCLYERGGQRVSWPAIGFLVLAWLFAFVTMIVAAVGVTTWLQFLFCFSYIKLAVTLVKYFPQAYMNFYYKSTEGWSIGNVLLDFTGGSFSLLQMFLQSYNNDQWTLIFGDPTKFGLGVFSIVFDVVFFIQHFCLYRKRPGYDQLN
UniProt Q9Y600: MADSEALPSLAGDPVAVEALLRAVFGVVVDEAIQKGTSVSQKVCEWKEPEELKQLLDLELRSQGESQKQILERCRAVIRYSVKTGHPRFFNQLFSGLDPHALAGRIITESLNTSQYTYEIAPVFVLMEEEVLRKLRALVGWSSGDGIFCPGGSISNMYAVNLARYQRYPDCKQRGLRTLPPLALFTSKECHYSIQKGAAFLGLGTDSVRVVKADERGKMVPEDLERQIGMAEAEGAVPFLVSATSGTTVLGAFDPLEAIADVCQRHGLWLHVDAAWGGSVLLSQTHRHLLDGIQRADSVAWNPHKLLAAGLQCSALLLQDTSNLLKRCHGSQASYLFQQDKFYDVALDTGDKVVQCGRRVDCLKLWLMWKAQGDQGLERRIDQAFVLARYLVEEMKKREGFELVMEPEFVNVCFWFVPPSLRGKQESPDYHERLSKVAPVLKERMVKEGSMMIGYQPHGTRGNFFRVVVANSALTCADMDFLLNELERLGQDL
UniProt Q53TN4: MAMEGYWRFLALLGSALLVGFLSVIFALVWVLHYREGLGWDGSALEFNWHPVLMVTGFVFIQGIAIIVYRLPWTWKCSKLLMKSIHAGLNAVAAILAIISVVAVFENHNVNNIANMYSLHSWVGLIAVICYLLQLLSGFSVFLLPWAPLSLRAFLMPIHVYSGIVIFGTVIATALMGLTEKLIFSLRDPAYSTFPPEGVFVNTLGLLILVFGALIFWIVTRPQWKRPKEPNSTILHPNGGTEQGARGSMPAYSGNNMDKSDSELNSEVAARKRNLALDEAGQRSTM
UniProt P99999: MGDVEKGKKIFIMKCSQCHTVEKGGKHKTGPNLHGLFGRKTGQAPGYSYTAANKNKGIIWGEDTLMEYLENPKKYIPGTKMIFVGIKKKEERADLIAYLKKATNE

Legend:
Assay in all cases: log2 fold change, soluble protein after heating vs DMSO (PISA); higher = thermal stabilisation; K562 lysate, 10 uM; active = over 0.2 and 3.5 SD of the protein, either way, in both replicates (recomputed)
[1] = compound: C1=CC=C(C=C1)[C@H](COC2=CC3=C(C=C2)NC(=O)N3)NC(=O)C4=CC=CN(C4=O)CC5=CC(=C(C=C5)F)F
Outline: (§1)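 Dounce homogenisation of K562 pellets in PBS pH 7.4 with 1 mM MgCl2 produced a crude extract, used at 1 mg/mL protein. Exposure to 10 μM compound lasted 30 min, and aliquots were then heated for 3 min across 48°C-58°C, pooled and brought to 0.5% NP-40 at 4°C. The supernatant after 21,000xg for 90 min was quantified by TMTpro 16plex LC-MS/MS with channel sums equalised. Duplicate values are given as log-two fold change in thermal stability relative to solvent controls.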

[2] = compound: CC1=C(SC2=C1C(=N[C@H](C3=NN=C(N32)C)CC(=O)N)C4=CC=C(C=C4)Cl)C
Outline: as §1

[3] = compound: CC1=C2C(=CC=C1)N=C(N(C2=O)C3=CC=CC=C3C)CN4C=NC5=C(N=CN=C54)N
Outline: as §1

[4] = compound: Cc1sc2c(c1C)C(c1ccc(Cl)cc1)=N[C@@H](CC(=O)OC(C)(C)C)c1nnc(C)n1-2
Outline: as §1

[5] = compound: c1ccc([C@@H]2C[C@H]2NC2CCNCC2)cc1
Outline: as §1

Measured: log2 fold change

CTNND1 isoform 3 (UniProt O60716)
inactive: [1] -0.021 | [2] 0.035 | [3] 0.058 | [4] 0.036 | [5] 0.028

CWC27 (UniProt Q6UX04)
inactive: [1] 0.022 | [2] 0.003 | [3] 0.018 | [4] -0.005 | [5] 0.02

CTU2 (UniProt Q2VPK5)
inactive: [1] 0.005 | [2] -0.012 | [3] -0.011 | [4] 0.042 | [5] 0.028

CRTC1 (UniProt Q6UUV9)
inactive: [1] -0.008 | [2] 0.03 | [3] 0.029 | [4] 0.015 | [5] -0.072

CUX1 isoform 3 (UniProt P39880)
inactive: [1] -0.001 | [2] 0.024 | [3] 0.031 | [4] 0.025 | [5] 0.03

CTR9 (UniProt Q6PD62)
inactive: [1] 0.008 | [2] 0.06 | [3] -0.007 | [4] 0.036 | [5] -0.002

CSTF1 (UniProt Q05048)
inactive: [1] 0.019 | [2] 0.058 | [3] -0.018 | [4] 0.013 | [5] -0.018

CYFIP2 (UniProt Q96F07)
inactive: [1] -0.023 | [2] 0.002 | [3] 0.029 | [4] 0.003 | [5] -0.002

CUL4A (UniProt Q13619)
inactive: [1] -0.019 | [2] 0.021 | [3] -0.038 | [4] 0.009 | [5] -0.025

CT55 (UniProt Q8WUE5)
inactive: [1] 0.019 | [2] 0.047 | [3] 0.052 | [4] -0.066 | [5] 0.011

CTDP1 (UniProt Q9Y5B0)
inactive: [1] -0.034 | [2] 0.017 | [3] -0.017 | [4] -0.035 | [5] 0.045

CSTB (UniProt P04080)
inactive: [1] -0.031 | [2] -0.018 | [3] -0.032 | [4] -0.071 | [5] -0.146

CREG1 (UniProt O75629)
inactive: [1] -0.013 | [2] 0.032 | [3] -0.034 | [4] 0.02 | [5] 0.022

CYBA (UniProt P13498)
inactive: [1] -0.075 | [2] -0.032 | [3] 0.01 | [4] -0.015 | [5] 0.04

CYB5R1 (UniProt Q9UHQ9)
inactive: [1] 0.03 | [2] -0.063 | [3] -0.031 | [4] 0.059 | [5] 0

CRYZL1 (UniProt O95825)
inactive: [1] 0.023 | [2] 0.016 | [3] -0.002 | [4] -0.023 | [5] -0.011

CTBP1 (UniProt Q13363)
inactive: [1] -0.015 | [2] 0.028 | [3] 0.023 | [4] 0.015 | [5] -0.025

CRPPA (UniProt A4D126)
inactive: [1] 0.005 | [2] -0.008 | [3] 0.006 | [4] -0.025 | [5] -0.019

CTNS isoform 2 (UniProt O60931)
inactive: [1] -0.133 | [2] -0.205 | [3] -0.021 | [4] 0.184 | [5] -0.274

CSAD isoform 3 (UniProt Q9Y600)
inactive: [1] -0.081 | [2] 0.137

CYBRD1 (UniProt Q53TN4)
inactive: [1] 0.011 | [2] -0.104 | [3] 0.217 | [4] -0.096 | [5] -0.042

CYCS (UniProt P99999)
inactive: [1] -0.013 | [2] 0.016 | [3] 0.002 | [4] 0.002 | [5] -0.01

CSPG5 isoform 2 (UniProt O95196)
inactive: [1] 0.126 | [2] 0.165 | [3] -0.138

CXorf56 (UniProt Q9H5V9)
inactive: [1] 0.016 | [2] 0.048 | [3] -0.012 | [4] -0.022 | [5] 0.01

Quoted at random: 2 entries already listed, in no set order.
CYBRD1 (UniProt Q53TN4)
inactive: [1] 0.011 | [2] -0.104 | [3] 0.217 | [4] -0.096 | [5] -0.042

CXorf56 (UniProt Q9H5V9)
inactive: [1] 0.016 | [2] 0.048 | [3] -0.012 | [4] -0.022 | [5] 0.01

Further records.

CTBS (UniProt Q01459)
inactive: [1] -0.013 | [2] -0.003 | [3] 0.028 | [4] 0.092 | [5] 0.006
